The values that follow come from publication PMC7293033.

Chains of the proteins cited; added tags and fusions are not shown. Lines headed by an entry give the natural chain unless they say otherwise; changes in a name come on top.
UniProt Q9BZZ5: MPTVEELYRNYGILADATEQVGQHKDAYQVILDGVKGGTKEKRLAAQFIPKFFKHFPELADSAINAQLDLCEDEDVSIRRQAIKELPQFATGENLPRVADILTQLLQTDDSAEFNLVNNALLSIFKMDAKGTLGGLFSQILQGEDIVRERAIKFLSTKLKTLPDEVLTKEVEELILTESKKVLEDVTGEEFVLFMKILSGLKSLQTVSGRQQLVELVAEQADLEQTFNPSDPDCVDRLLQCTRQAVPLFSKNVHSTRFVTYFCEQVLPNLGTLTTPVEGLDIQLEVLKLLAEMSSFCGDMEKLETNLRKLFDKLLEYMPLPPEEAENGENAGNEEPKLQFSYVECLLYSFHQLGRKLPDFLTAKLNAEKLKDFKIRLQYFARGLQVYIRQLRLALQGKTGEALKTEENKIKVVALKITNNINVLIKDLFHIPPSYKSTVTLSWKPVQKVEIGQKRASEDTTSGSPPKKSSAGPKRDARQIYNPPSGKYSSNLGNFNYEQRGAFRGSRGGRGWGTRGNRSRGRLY
UniProt P06730: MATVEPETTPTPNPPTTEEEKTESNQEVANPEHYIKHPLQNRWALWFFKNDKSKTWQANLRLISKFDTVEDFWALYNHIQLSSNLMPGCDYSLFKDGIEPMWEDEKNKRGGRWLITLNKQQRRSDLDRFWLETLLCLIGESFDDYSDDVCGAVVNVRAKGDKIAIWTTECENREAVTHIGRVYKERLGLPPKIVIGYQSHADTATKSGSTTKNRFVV
UniProt O75152: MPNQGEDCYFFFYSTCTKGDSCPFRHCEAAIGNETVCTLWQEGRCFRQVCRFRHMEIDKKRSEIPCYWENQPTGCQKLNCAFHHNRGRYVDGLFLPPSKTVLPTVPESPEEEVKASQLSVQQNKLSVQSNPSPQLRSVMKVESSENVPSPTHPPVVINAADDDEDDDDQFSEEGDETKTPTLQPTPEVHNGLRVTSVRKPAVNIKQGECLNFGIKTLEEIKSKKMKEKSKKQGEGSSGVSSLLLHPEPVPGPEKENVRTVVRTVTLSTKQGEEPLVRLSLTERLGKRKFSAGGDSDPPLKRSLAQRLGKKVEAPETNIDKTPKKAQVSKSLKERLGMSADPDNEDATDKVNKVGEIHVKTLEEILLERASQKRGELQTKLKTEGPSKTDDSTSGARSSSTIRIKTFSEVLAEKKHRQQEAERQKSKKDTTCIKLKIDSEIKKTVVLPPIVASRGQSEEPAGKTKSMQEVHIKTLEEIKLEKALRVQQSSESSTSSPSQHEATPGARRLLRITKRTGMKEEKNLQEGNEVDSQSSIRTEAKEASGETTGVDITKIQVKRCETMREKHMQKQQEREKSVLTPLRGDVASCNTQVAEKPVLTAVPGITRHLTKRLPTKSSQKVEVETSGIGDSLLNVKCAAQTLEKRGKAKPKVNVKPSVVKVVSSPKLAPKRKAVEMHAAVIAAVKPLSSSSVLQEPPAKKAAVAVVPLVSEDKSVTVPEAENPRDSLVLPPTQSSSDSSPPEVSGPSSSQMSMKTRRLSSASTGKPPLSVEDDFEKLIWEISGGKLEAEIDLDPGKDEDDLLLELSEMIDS
UniProt P09038: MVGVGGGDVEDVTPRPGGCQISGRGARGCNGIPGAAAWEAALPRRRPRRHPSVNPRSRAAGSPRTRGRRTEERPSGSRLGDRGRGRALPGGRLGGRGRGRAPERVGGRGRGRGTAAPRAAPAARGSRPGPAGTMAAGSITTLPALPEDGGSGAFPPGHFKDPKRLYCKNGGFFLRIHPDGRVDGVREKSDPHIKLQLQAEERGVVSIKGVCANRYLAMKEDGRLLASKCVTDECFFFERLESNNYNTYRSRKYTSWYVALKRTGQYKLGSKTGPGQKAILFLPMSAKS
UniProt O00571: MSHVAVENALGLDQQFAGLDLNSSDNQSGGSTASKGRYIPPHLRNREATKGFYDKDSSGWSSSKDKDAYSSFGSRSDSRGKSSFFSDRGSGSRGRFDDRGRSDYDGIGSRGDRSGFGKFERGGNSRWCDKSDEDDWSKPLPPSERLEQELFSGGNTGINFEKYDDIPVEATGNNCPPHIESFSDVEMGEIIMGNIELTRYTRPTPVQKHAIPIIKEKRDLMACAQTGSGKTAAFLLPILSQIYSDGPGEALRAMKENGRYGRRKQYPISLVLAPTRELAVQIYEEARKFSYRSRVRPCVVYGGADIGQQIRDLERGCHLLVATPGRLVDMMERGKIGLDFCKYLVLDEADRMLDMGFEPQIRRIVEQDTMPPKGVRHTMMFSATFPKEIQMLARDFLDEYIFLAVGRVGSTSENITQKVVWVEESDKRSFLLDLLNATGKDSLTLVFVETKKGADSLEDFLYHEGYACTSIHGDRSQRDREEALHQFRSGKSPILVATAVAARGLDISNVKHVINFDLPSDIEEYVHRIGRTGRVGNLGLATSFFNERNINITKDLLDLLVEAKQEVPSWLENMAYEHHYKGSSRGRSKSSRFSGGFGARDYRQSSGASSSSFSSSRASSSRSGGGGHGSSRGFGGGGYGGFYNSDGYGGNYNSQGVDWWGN
UniProt Q13838: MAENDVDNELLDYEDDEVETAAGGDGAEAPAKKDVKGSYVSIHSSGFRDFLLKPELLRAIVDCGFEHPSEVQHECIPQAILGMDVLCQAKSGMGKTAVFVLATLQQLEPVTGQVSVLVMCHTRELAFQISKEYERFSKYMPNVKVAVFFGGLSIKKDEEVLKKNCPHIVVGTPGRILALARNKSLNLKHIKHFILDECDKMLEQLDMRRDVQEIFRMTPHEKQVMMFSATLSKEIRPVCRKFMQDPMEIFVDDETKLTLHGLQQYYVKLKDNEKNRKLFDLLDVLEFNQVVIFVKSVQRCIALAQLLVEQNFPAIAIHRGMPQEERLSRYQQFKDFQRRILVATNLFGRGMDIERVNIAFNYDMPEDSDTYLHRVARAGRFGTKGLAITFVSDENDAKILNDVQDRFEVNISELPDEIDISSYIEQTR

Results are given in words; binding and its absence hold for the method and conditions named. In cells and extracts the contact can be indirect. Here binding means that the protein was enriched with, or labelled near, the bait; the list need not be complete. No binding means not detected with the bait.

In assay [1] the target is FLAG-tagged API5 4Mut (D145A/E184A/D185A/E190A) (human) (UniProt Q9BZZ5). Nature of the assay: affinity purification with mass spectrometry; immunoprecipitation of FLAG-tagged API5 WT or 4Mut reconstituted in API5 knockout cells, proteomics analysis; mock as control.
For assay [2], the target named is FLAG-tagged API5 WT (human) (UniProt Q9BZZ5). The description is as above.

Take eIF4E (from UniProt P06730 1-217): the binding result is given as “no binding” in assay [1] and “binds” in assay [2]. The matching figures for ZC3H11A (from UniProt O75152 1-810): “no binding” and “binds”.

FGF2 (endogenous) (from UniProt P09038): the figures for the binding entry in assay [1] and in assay [2] were “no binding” and “binds”, respectively.

As to DDX3X (from UniProt O00571 1-662), the binding result in assay [2] was “no binding”. As to “UAP56 (DDX39B), endogenous (from UniProt Q13838 1-428)”, the binding result in assay [1] and in assay [2] was “binds” each time.
